From the supplement of paper PMC12823440, “Inhibitors supercharge kinase turnover through native proteolytic circuits” (Nature, 2025)
The list shows a part of the results. The calls rarely recur for the same compound in another form.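 Kinases, fused to nanoluciferase, were expressed in K562 cells; luminescence was measured every 4 h from 2 to 18 h as percent of control (DMSO = 100%, positive control = 0%). A time point is decreased if signal falls significantly (2 sigma). Hits were called by the authors by a rule that is not shown; the count of time points alone does not decide it.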

Sequences of proteins named here, by UniProt entry; tags and fusion partners are left off. A change or cut given only in a name is not applied to a line headed by its entry.
UniProt Q15208: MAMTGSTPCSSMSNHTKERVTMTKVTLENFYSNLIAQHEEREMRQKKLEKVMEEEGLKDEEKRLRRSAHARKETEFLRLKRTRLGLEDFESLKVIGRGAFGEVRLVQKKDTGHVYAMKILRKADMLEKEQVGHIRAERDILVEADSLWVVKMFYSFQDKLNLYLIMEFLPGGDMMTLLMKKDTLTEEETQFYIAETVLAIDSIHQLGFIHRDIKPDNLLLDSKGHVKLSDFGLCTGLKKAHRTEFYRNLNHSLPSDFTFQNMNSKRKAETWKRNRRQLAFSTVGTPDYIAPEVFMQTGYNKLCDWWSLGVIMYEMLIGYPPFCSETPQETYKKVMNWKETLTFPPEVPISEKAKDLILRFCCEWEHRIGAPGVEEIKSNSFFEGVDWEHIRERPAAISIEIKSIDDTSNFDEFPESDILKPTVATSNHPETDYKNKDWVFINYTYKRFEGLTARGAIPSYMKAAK
UniProt P42680: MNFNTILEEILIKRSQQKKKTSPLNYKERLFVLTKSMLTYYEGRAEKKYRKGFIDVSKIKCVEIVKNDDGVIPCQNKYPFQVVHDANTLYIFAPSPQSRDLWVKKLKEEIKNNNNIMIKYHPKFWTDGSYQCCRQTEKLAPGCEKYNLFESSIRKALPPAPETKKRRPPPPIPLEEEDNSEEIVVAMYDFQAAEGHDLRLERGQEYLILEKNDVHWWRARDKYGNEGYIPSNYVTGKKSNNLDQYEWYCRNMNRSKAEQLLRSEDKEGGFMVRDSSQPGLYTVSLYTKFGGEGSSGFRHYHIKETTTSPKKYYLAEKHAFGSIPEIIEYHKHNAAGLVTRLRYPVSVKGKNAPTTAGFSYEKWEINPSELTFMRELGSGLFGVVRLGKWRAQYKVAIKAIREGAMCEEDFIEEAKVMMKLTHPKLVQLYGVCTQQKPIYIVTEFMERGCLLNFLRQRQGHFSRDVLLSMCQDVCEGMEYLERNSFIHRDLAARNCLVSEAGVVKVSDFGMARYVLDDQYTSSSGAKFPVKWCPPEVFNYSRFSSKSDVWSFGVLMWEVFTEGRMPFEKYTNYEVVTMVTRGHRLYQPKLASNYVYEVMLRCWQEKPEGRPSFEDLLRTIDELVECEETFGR
UniProt Q6PHR2: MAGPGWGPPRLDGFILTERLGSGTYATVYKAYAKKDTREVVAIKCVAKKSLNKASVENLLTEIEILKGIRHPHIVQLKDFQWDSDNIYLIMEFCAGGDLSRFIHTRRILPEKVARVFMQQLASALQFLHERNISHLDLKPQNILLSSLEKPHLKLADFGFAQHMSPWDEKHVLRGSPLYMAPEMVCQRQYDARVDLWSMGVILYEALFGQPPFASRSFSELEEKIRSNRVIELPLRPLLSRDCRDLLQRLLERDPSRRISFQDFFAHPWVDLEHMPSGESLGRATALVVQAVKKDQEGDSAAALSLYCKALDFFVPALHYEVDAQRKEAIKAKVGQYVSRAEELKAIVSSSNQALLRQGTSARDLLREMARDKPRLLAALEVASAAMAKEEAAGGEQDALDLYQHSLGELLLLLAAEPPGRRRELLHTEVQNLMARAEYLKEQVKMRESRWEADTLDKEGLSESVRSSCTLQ
UniProt P07947, whole entry, looked up: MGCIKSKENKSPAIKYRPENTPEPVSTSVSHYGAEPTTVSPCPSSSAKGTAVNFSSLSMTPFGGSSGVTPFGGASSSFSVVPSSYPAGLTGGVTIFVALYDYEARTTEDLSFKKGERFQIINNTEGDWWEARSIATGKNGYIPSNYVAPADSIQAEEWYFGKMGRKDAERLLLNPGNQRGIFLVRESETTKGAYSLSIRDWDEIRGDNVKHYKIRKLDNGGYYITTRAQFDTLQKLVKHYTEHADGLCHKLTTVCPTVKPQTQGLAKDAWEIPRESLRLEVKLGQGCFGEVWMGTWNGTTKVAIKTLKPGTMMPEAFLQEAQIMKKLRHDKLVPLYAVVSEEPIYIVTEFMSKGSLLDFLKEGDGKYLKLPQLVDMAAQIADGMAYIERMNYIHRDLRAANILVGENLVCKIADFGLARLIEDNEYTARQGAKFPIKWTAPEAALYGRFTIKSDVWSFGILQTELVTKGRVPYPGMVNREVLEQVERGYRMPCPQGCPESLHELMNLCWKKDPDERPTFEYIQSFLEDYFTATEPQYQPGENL
UniProt P00519, whole entry: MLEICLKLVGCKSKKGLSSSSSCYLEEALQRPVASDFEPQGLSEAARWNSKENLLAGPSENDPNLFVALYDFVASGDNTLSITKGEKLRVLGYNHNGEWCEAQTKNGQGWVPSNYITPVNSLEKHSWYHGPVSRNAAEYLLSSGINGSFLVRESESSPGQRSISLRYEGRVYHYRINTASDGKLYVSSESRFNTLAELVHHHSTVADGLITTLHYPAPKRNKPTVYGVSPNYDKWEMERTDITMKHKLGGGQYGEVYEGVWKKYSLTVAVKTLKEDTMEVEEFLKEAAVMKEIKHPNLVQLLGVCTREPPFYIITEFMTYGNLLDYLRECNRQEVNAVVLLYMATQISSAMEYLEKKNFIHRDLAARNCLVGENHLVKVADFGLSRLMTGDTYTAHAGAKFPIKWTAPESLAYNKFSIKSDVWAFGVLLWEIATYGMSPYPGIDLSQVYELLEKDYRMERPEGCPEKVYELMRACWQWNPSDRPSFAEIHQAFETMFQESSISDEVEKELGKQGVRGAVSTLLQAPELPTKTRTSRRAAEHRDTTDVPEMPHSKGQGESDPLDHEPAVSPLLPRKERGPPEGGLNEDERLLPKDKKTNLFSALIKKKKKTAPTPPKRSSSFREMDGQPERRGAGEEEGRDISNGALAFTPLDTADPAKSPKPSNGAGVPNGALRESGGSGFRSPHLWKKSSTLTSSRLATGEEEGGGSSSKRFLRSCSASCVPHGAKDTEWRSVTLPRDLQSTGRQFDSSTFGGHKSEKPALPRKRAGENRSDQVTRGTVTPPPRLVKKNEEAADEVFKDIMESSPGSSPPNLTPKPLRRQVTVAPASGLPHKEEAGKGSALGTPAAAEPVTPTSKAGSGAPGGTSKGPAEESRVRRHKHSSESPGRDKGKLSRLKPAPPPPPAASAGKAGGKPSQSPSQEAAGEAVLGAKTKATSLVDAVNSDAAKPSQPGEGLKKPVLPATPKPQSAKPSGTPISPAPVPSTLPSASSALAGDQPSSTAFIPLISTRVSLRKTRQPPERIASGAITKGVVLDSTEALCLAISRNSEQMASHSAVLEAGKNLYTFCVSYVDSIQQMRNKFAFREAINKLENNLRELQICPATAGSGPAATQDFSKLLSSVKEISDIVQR
UniProt P31749: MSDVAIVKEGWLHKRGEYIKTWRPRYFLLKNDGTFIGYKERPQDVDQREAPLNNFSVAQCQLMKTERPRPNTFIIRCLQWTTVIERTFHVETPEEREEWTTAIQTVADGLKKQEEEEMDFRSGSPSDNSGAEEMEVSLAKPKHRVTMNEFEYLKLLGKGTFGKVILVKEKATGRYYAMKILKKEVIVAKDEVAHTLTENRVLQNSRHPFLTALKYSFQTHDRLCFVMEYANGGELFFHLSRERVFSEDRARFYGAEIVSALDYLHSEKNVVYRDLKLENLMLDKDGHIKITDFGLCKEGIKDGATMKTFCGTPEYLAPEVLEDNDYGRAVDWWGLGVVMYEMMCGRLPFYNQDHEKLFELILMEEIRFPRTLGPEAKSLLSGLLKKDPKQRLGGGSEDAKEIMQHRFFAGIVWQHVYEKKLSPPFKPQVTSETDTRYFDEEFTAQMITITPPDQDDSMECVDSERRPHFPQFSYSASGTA
UniProt Q9UM73: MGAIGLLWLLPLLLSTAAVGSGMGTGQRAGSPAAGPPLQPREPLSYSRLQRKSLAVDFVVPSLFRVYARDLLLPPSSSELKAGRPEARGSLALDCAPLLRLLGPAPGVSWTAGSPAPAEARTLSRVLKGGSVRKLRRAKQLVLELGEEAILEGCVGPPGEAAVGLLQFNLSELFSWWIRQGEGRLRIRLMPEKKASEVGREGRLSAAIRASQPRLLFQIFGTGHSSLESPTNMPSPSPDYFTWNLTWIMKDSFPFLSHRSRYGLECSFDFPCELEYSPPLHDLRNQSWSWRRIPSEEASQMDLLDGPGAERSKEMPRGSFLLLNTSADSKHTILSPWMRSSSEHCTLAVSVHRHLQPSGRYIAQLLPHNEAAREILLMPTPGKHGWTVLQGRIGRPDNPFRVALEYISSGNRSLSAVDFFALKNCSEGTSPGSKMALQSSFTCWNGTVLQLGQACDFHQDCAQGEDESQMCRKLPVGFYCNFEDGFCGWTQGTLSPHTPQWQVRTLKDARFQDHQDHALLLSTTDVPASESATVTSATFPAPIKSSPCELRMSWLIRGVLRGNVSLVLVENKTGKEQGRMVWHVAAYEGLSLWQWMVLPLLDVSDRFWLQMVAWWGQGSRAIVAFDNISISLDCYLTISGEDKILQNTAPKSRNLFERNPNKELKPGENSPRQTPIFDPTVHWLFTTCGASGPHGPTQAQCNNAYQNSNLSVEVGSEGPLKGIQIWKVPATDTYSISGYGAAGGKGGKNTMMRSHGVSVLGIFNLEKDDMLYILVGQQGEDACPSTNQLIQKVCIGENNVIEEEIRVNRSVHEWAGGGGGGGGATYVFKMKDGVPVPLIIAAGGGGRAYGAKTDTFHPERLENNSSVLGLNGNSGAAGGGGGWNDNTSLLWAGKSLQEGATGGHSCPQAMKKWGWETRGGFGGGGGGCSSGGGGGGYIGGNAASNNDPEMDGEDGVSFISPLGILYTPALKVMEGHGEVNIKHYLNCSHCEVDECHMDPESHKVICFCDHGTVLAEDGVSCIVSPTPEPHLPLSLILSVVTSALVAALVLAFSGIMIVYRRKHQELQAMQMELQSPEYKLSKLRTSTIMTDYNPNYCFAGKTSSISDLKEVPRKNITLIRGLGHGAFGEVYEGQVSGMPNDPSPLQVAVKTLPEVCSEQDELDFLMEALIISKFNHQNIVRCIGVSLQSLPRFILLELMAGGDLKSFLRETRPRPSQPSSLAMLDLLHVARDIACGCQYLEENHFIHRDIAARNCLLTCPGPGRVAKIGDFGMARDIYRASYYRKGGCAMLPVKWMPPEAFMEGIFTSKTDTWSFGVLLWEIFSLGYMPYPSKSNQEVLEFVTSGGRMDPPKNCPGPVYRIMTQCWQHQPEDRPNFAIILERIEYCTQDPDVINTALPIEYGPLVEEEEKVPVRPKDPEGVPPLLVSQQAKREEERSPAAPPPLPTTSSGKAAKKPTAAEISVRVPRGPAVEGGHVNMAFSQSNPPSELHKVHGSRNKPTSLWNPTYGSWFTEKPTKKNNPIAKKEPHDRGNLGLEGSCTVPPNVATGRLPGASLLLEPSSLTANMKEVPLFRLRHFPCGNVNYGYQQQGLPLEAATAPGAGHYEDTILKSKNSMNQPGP
UniProt P10398: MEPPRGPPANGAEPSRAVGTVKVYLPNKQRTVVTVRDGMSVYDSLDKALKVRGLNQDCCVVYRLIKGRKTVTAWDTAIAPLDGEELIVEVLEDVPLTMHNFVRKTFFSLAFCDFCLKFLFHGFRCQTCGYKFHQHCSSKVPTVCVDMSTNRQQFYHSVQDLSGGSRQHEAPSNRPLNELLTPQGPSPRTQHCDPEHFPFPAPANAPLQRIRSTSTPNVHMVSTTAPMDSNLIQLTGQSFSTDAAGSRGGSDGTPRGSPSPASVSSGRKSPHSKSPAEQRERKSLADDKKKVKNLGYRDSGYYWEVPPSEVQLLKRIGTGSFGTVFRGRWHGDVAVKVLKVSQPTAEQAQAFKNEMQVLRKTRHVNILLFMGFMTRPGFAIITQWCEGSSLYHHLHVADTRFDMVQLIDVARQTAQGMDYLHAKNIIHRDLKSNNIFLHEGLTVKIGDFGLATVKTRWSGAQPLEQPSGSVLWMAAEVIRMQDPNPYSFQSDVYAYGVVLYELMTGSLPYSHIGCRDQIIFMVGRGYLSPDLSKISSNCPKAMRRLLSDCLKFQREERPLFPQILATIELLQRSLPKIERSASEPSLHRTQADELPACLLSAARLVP
UniProt Q96GD4, whole entry: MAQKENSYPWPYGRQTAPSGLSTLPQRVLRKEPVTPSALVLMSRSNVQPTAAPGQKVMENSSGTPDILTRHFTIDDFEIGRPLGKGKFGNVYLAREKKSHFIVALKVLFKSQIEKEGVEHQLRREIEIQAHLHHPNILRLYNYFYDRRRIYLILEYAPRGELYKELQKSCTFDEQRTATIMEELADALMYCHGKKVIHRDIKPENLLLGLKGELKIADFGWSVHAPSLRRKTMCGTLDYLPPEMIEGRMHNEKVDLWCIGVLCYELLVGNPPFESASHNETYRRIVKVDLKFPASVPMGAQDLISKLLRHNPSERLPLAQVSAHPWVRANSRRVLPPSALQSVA
UniProt Q9UQB9: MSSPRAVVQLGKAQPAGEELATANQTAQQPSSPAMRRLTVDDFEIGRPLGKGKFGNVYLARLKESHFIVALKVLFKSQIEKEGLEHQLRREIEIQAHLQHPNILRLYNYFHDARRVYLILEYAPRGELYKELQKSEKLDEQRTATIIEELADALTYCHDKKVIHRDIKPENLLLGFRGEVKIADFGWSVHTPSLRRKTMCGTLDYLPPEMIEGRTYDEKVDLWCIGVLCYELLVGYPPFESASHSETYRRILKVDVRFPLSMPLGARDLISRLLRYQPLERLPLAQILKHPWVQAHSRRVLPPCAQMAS

Tests used:
Details in all cases: K562; 2-18 h
STK38 = STK38 (UniProt Q15208); assay: kinase-Nluc reporter destabilization hit call (1 = scored as downregulated) (binary); higher = compound decreases kinase abundance
SYK = SYK (UniProt P43405); assay: as above
TEC = TEC (UniProt P42680); assay: as above
TYK2 = TYK2 (UniProt P29597); assay: as above
ULK3 = ULK3 (UniProt Q6PHR2); assay: as above
YES1 = YES1 (UniProt P07947); assay: as above
ZAK = ZAK (UniProt Q9NYL2); assay: as above
ZAP70 = ZAP70 (UniProt P43403); assay: as above
ABL1 = ABL1 (UniProt P00519); assay: number of time points (of 5) at which kinase-Nluc abundance scored as decreased, DMSO-normalised (count); higher = more persistent destabilization
AKT1 = AKT1 (UniProt P31749); assay: as above
ALK = ALK (UniProt Q9UM73); assay: as above
ARAF = ARAF (UniProt P10398); assay: as above
AURKA = AURKA (UniProt O14965); assay: as above
AURKB = AURKB (UniProt Q96GD4); assay: as above
AURKC = AURKC (UniProt Q9UQB9); assay: as above
BLK = BLK (UniProt P51451); assay: as above
BMX = BMX (UniProt P51813); assay: as above
BRAF = BRAF (UniProt P15056); assay: as above
BRAF_V600E = assay: as above
BTK = BTK (UniProt Q06187); assay: as above

CCC(=O)N1CCN(c2ccc(-n3c(=O)ccc4cnc5ccc(-c6cnc7ccccc7c6)cc5c43)cc2C(F)(F)F)CC1 [Torin 1] (2 µM)
kinase-Nluc reporter destabilization hit call (STK38): inactive: 0
kinase-Nluc reporter destabilization hit call (SYK): inactive: 0
kinase-Nluc reporter destabilization hit call (TEC): inactive: 0
kinase-Nluc reporter destabilization hit call (TYK2): inactive: 0
kinase-Nluc reporter destabilization hit call (ULK3): inactive: 0
kinase-Nluc reporter destabilization hit call (YES1): inactive: 0
kinase-Nluc reporter destabilization hit call (ZAK): inactive: 0
kinase-Nluc reporter destabilization hit call (ZAP70): inactive: 0
number of time points (ABL1): 5
number of time points (AKT1): 0
number of time points (ALK): 1
number of time points (ARAF): 0
number of time points (AURKA): 1
number of time points (AURKB): 4
number of time points (AURKC): 0
number of time points (BLK): 2
number of time points (BMX): 4
number of time points (BRAF): 0
number of time points (BRAF_V600E): 1
number of time points (BTK): 0

FC(F)(F)c1ccc(CNc2ccc(Cc3c[nH]c4ncc(Cl)cc34)cn2)cc1 (10 µM)
kinase-Nluc reporter destabilization hit call (STK38): inactive: 0
kinase-Nluc reporter destabilization hit call (SYK): inactive: 0
kinase-Nluc reporter destabilization hit call (TEC): inactive: 0
kinase-Nluc reporter destabilization hit call (TYK2): inactive: 0
kinase-Nluc reporter destabilization hit call (ULK3): inactive: 0
kinase-Nluc reporter destabilization hit call (YES1): inactive: 0
kinase-Nluc reporter destabilization hit call (ZAK): inactive: 0
kinase-Nluc reporter destabilization hit call (ZAP70): inactive: 0
number of time points (ABL1): 0
number of time points (AKT1): 0
number of time points (ALK): 0
number of time points (ARAF): 0
number of time points (AURKA): 0
number of time points (AURKB): 0
number of time points (AURKC): 0
number of time points (BLK): 0
number of time points (BMX): 0
number of time points (BRAF): 0
number of time points (BRAF_V600E): 0
number of time points (BTK): 0

CCN1C(=O)N(c2c(F)c(OC)cc(OC)c2F)Cc2cnc3[nH]c(CN4CCOCC4)cc3c21 [Pemigatinib] (10 µM)
kinase-Nluc reporter destabilization hit call (STK38): inactive: 0
kinase-Nluc reporter destabilization hit call (SYK): inactive: 0
kinase-Nluc reporter destabilization hit call (TEC): inactive: 0
kinase-Nluc reporter destabilization hit call (TYK2): inactive: 0
kinase-Nluc reporter destabilization hit call (ULK3): inactive: 0
kinase-Nluc reporter destabilization hit call (YES1): inactive: 0
kinase-Nluc reporter destabilization hit call (ZAK): inactive: 0
kinase-Nluc reporter destabilization hit call (ZAP70): inactive: 0
number of time points (ABL1): 0
number of time points (AKT1): 0
number of time points (ALK): 0
number of time points (ARAF): 0
number of time points (AURKA): 0
number of time points (AURKB): 0
number of time points (AURKC): 0
number of time points (BLK): 0
number of time points (BMX): 0
number of time points (BRAF): 0
number of time points (BRAF_V600E): 0
number of time points (BTK): 0

C=CC(=O)N1CCN(CCCn2c(=O)c(-c3c(Cl)c(OC)cc(OC)c3Cl)cc3cnc(NC)nc32)CC1 (10 µM)
kinase-Nluc reporter destabilization hit call (STK38): inactive: 0
kinase-Nluc reporter destabilization hit call (SYK): inactive: 0
kinase-Nluc reporter destabilization hit call (TEC): inactive: 0
kinase-Nluc reporter destabilization hit call (TYK2): inactive: 0
kinase-Nluc reporter destabilization hit call (ULK3): inactive: 0
kinase-Nluc reporter destabilization hit call (YES1): inactive: 0
kinase-Nluc reporter destabilization hit call (ZAK): inactive: 0
kinase-Nluc reporter destabilization hit call (ZAP70): inactive: 0
number of time points (ABL1): 0
number of time points (AKT1): 0
number of time points (ALK): 0
number of time points (ARAF): 0
number of time points (AURKA): 0
number of time points (AURKB): 0
number of time points (AURKC): 0
number of time points (BLK): 0
number of time points (BMX): 0
number of time points (BRAF): 0
number of time points (BRAF_V600E): 0
number of time points (BTK): 0

COCCOc1cc2nccc(Nc3n[nH]c(C)c3C)c2cc1S(=O)(=O)C(C)(C)C [RIP2 kinase inhibitor 2] (2.5 µM)
kinase-Nluc reporter destabilization hit call (STK38): inactive: 0
kinase-Nluc reporter destabilization hit call (SYK): inactive: 0
kinase-Nluc reporter destabilization hit call (TEC): inactive: 0
kinase-Nluc reporter destabilization hit call (TYK2): inactive: 0
kinase-Nluc reporter destabilization hit call (ULK3): inactive: 0
kinase-Nluc reporter destabilization hit call (YES1): inactive: 0
kinase-Nluc reporter destabilization hit call (ZAK): inactive: 0
kinase-Nluc reporter destabilization hit call (ZAP70): inactive: 0
number of time points (ABL1): 0
number of time points (AKT1): 0
number of time points (ALK): 0
number of time points (ARAF): 0
number of time points (AURKA): 0
number of time points (AURKB): 0
number of time points (AURKC): 0
number of time points (BLK): 0
number of time points (BMX): 0
number of time points (BRAF): 0
number of time points (BTK): 0

Cc1c[nH]c(/C=C2\C(=O)Nc3ccccc32)c1CCC(=O)O (10 µM)
kinase-Nluc reporter destabilization hit call (STK38): inactive: 0
kinase-Nluc reporter destabilization hit call (SYK): inactive: 0
kinase-Nluc reporter destabilization hit call (TEC): inactive: 0
kinase-Nluc reporter destabilization hit call (TYK2): inactive: 0
kinase-Nluc reporter destabilization hit call (ULK3): inactive: 0
kinase-Nluc reporter destabilization hit call (YES1): inactive: 0
kinase-Nluc reporter destabilization hit call (ZAK): inactive: 0
kinase-Nluc reporter destabilization hit call (ZAP70): inactive: 0
number of time points (ABL1): 0
number of time points (AKT1): 0
number of time points (ALK): 0
number of time points (ARAF): 0
number of time points (AURKA): 0
number of time points (AURKB): 0
number of time points (AURKC): 0
number of time points (BLK): 0
number of time points (BMX): 0
number of time points (BRAF): 0
number of time points (BRAF_V600E): 0
number of time points (BTK): 0

CCCCOc1c(C(=O)c2c(F)cc(C)cc2F)c[nH]c2nncc1-2 (10 µM)
kinase-Nluc reporter destabilization hit call (STK38): inactive: 0
kinase-Nluc reporter destabilization hit call (SYK): inactive: 0
kinase-Nluc reporter destabilization hit call (TEC): inactive: 0
kinase-Nluc reporter destabilization hit call (TYK2): inactive: 0
kinase-Nluc reporter destabilization hit call (ULK3): inactive: 0
kinase-Nluc reporter destabilization hit call (YES1): inactive: 0
kinase-Nluc reporter destabilization hit call (ZAK): inactive: 0
kinase-Nluc reporter destabilization hit call (ZAP70): inactive: 0
number of time points (ABL1): 0
number of time points (AKT1): 0
number of time points (ALK): 0
number of time points (ARAF): 0
number of time points (AURKA): 0
number of time points (AURKB): 0
number of time points (AURKC): 0
number of time points (BLK): 0
number of time points (BMX): 0
number of time points (BRAF): 0
number of time points (BRAF_V600E): 0
number of time points (BTK): 0

COc1ccc(NC(=O)N2CCN(c3nc(N)nc4c3cnn4C)[C@@H](C)C2)c(C)c1 (10 µM)
kinase-Nluc reporter destabilization hit call (STK38): inactive: 0
kinase-Nluc reporter destabilization hit call (SYK): inactive: 0
kinase-Nluc reporter destabilization hit call (TEC): inactive: 0
kinase-Nluc reporter destabilization hit call (TYK2): inactive: 0
kinase-Nluc reporter destabilization hit call (ULK3): inactive: 0
kinase-Nluc reporter destabilization hit call (YES1): inactive: 0
kinase-Nluc reporter destabilization hit call (ZAK): inactive: 0
kinase-Nluc reporter destabilization hit call (ZAP70): inactive: 0
number of time points (ABL1): 0
number of time points (AKT1): 0
number of time points (ALK): 0
number of time points (ARAF): 0
number of time points (AURKA): 0
number of time points (AURKB): 0
number of time points (AURKC): 0
number of time points (BLK): 0
number of time points (BMX): 0
number of time points (BRAF): 0
number of time points (BTK): 0
